In PubChem BioAssay AID588499 (NMMLSC, 2011):
Hit rate of the full screen: of about 360,000 compounds, about 610 (0.17%) were called active. Inconclusive means that the source gave no clear call. Such entries were picked first, then a sample of the others. No stated cut-off is given here; in the data, active means inhibition above about 30%; inconclusive means no clear call, values can overlap the other calls; inactive means below that.

system: Botulinum neurotoxin type A light chain protease (Clostridium botulinum A str. ATCC 3502); assay: blockers of BoNT/A LC substrate cleavage – biochemical, flow cytometry, MLPCN library, primary screen (AID 588499); conditions: multiplex microsphere protease substrate cleavage, at 10 µM, hits give high values; further: plate controls were buffer without enzyme for full effect and enzyme alone for no effect

Structure (SMILES)	inhibition
CCCCC(CC)c1nnc(NC(=O)c2cccs2)s1 (stereo not drawn)	inactive: -0.4%
CN1\C(=C/C=C/C=C/C=[N+](C)C)C(C)(C)c2ccccc21	inconclusive: 0.1%
CCN(CC)c1ccc(/C=C/C(=O)C2C(=O)C=C(C)OC2=O)cc1 (stereo not drawn)	active: 70%
O=C1CC(c2ccc(F)cc2)Sc2ccccc2N1 (stereo not drawn)	inconclusive: -4.7%
Cc1oc(=O)cc(OCc2ccccc2)c1C	inactive: -0.7%
O=C(CCc1c[nH]c2ccccc12)OCc1cccc([N+](=O)[O-])c1	inactive: -5.6%
Cc1cccc(S(=O)(=O)c2c(N)n(Cc3ccco3)c3nc4ccccc4nc23)c1	inactive: 0.6%
COc1ccccc1NCCC(=O)O	inactive: -0.7%
O=C(c1cccc(C(F)(F)F)c1)N1CCC(O)(CS(=O)(=O)Cc2ccccc2Cl)CC1	inconclusive: -0.1%
CCOc1ccc(CN(C)C(=O)CCl)cc1	inactive: -1.1%
CCOC(=O)C1CCCN(C2CC(=O)N(c3ccc(C)cc3)C2=O)C1 (stereo not drawn)	inconclusive: -1.7%
Cc1ccc2nc3c(c(N)c2c1)CCN3C	inactive: 3.5%
Cn1ncc2c(N3CCN(c4ccccc4F)CC3)ncnc21	inconclusive: -1%
O=C(Nc1c(Cl)cc(Cl)cc1-c1nc2ccccc2s1)c1ccc(Br)o1	inconclusive: -4.7%
Nc1c(N2CCOCC2)cc(Cl)c2nonc12	inconclusive: -2.1%
CCOc1ccc(OCCCC(=O)NC2=NCCS2)cc1	inconclusive: -3.8%
CCCCCCCCCCOC(=O)C[N+](C)(C)CC1CCCCC1O (stereo not drawn)	inconclusive: -0.2%
COc1c(F)cccc1C1=CC(=O)C[C@H](c2ccc(F)cc2)C1	inactive: -0.4%
COc1cc(NC(=O)NS(=O)(=O)c2ccc(C)cc2)cc(OC)c1	inconclusive: 0.6%
COc1ccc(C2SCC(=O)Nc3c2c(C)nn3C2CCOC(C)(C)C2)cc1OC (stereo not drawn)	inconclusive: -2.2%
COCCCNC(=O)C1CCN(S(=O)(=O)c2c(C)noc2/C=C\c2ccc(OC)cc2)CC1	inconclusive: 1.5%
N#Cc1c(-c2ccncc2)c2c([nH]c1=S)CCCC2	inactive: 0.5%
CC(C)Cn1c(N)c(C(=O)COC(=O)c2nccnc2N)c(=O)n(C)c1=O	inactive: 2.1%
Cc1cc2cc(CNC(=O)c3cccs3)ccc2[nH]1	active: 75.4%

Structure (SMILES)	inhibition
C/C(CC(=O)NCc1ccco1)=N\NC(=O)Cc1ccc(-c2ccccc2)cc1	inactive: 2.6%
OC1=C(O)c2nc3cc(C(F)(F)F)ccc3nc21	inconclusive: -1.6%
O=C(c1ccccc1)c1c[nH]c(C(=O)C(Cl)(Cl)Cl)c1	inactive: 0.1%
Cn1c(=O)c2c(nc(NCCCO)n2Cc2cccc(Br)c2)n(C)c1=O	inconclusive: 8.6%
CCCCNC(=S)Nc1ccc(Oc2ccccc2)cc1	inactive: -0.9%
COCC(=O)NC1CC(C)(C)Cc2c1cnn2-c1ccc(F)cc1 (stereo not drawn)	inconclusive: -1.6%
FC(F)(F)c1nnc2sc(-c3ccncc3)nn12	inconclusive: 7.9%
COc1cccc(NC(=O)N(C)C[C@@H]2OCc3cnnn3CCCC(=O)N([C@H](C)CO)C[C@@H]2C)c1	inactive: -0.6%
O=C(CCN1C(=O)/C(=C\c2ccccc2)SC1=S)Nc1ccc(C(=O)O)cc1	inactive: 2.1%
COc1ccc(NS(=O)(=O)c2cccc(C(=O)N3CCCCCC3)c2)cc1	inconclusive: -1.6%
CN(C)c1ccc(SC#N)cc1	inconclusive: -32.2%
CC1CN/C(=C\C(=O)c2ccc(Cl)cc2)C(=O)N1 (stereo not drawn)	inconclusive: -4.3%
COc1cccc(C(=O)N2CCC[C@H]2C(=O)N2CCC[C@H]2C(=O)N(C)Cc2ccccc2)c1	inactive: 1%
O=C(COc1ccccc1C(=O)NCC1CCCO1)Nc1ccc(Br)cc1 (stereo not drawn)	inactive: -1.1%
CCNc1nc(NC(C)CC)nc(Oc2ccc(=O)[nH]n2)n1 (stereo not drawn)	inconclusive: -0.8%
CCCN(C(=O)c1ccc(OCC(C)C)cc1)c1c(N)n(Cc2ccccc2)c(=O)[nH]c1=O	inconclusive: -1%
COc1ccc(Cc2nnc(NC(=O)CS(=O)(=O)Cc3ccccc3)s2)cc1	inactive: 0.3%
Cc1nc(-c2c(C(F)(F)F)noc2-c2ccc(O)cc2O)cs1	inconclusive: -8.6%
Cc1cccc(C2NS(=O)(=O)N=C2N)c1 (stereo not drawn)	inconclusive: 22.2%
COc1ccc(/C(C)=N/Nc2nc3ccccc3nc2C)cc1OC	inconclusive: 6.2%
CN1C(=O)C(CC(=O)Nc2ccc(F)cc2)N(NC(=O)c2cccc(F)c2)C1=S (stereo not drawn)	inconclusive: 4.6%
Cc1c(NS(=O)(=O)c2cc([N+](=O)[O-])ccc2Cl)c(=O)n(-c2ccccc2)n1C	inconclusive: 15.8%
Cn1c(=O)oc2ccc(C(=O)CSc3nnnn3-c3ccccc3)cc21	inconclusive: 1%
O=C(Nc1ccc(F)cc1F)c1ccc(-n2cncn2)nc1	inconclusive: 0.5%

Ordered by SMILES length (descending): 4 of the compounds above.
Structure (SMILES)	inhibition
COc1ccc(Cc2nnc(NC(=O)CS(=O)(=O)Cc3ccccc3)s2)cc1	inactive: 0.3%
Cn1c(=O)c2c(nc(NCCCO)n2Cc2cccc(Br)c2)n(C)c1=O	inconclusive: 8.6%
OC1=C(O)c2nc3cc(C(F)(F)F)ccc3nc21	inconclusive: -1.6%
CCCCNC(=S)Nc1ccc(Oc2ccccc2)cc1	inactive: -0.9%

Following part

Structure (SMILES)	inhibition
Cc1ccc(C2(CC(=O)O)CCOC(C)(C)C2)cc1 (stereo not drawn)	inconclusive: 1.3%
CC(=O)Nc1cc(C(=O)N(C)Cc2ccccc2)ccc1S(=O)(=O)c1ccc(C)cc1	inactive: -2.8%
CCOC(=O)CNc1ccc(OC(F)(F)F)cc1	inconclusive: -12.9%
CCCC(NC(=S)NCC1CCCO1)C12CC3CC(CC(C3)C1)C2 (stereo not drawn)	inactive: 0%
COc1ccc(-c2c(C(F)(F)F)[nH]n3c(=O)cc(-c4ccccc4)nc23)cc1	inconclusive: 6.6%
COC(=O)COc1ccc(Oc2cc(C)nc(SC)n2)nn1	inconclusive: -4.4%
Cc1nc2nc(C)c(CCC(=O)NCc3ccc4c(c3)OCO4)c(C)n2n1	inconclusive: -6%
Cc1cc(Br)cn2c(Cc3ccsc3)c(-c3ccco3)nc12	inactive: 1.6%
COc1ccc(CN2CSC(=S)N(Cc3ccc(OC)cc3)C2)cc1	inconclusive: -20.3%
C=CCN(CC(=O)O)S(=O)(=O)c1ccccc1C(F)(F)F	inactive: 0%
Cc1ccnc(SCC(=O)Nc2sc3c(c2C#N)CCC(C(C)(C)C)C3)n1 (stereo not drawn)	inconclusive: 1.6%
CCOc1ccccc1/C=N/Nc1nc2c(N)ncnc2n1[C@H]1O[C@@H](CO)[C@H](O)[C@@H]1O	inconclusive: 15.8%
CC(C)c1ccccc1NC(=O)COC(=O)c1cc([N+](=O)[O-])ccc1N1CCOCC1	inconclusive: 1.4%
O=C1c2ccccc2C(=O)N1CCN1CCc2ccccc21	inconclusive: 12.2%
CCC(C)N(CC(=O)NCc1ccc(OC)cc1)C(=O)c1csnn1 (stereo not drawn)	inconclusive: 8%
O=C1CN(C(=O)COC(=O)Cc2ccsc2)c2ccccc2N1	inconclusive: -2.1%
COc1ccccc1N1CCN(C(=O)C(C)N(c2ccccc2)S(C)(=O)=O)CC1 (stereo not drawn)	inconclusive: -5.8%
COc1cc(N2CCOCC2)ncn1	inconclusive: -1.2%
CCNC(=S)N/N=C1\C(=O)c2cccc3cccc1c23	inactive: 2.7%
Cc1ccc(CNC(=O)C2CCCCC2C(=O)O)cc1 (stereo not drawn)	inconclusive: 0.6%
CCCOc1cc(C)c(S(=O)(=O)n2nnc3ccccc32)cc1C	inconclusive: -3.7%
COC(=O)c1sccc1NC(=O)c1cc(C)on1	inconclusive: -7.5%
Cc1oc2cc3oc(=O)c(CC(=O)NCCC(=O)O)c(C)c3cc2c1C	inactive: -4.1%
O=C(NCC1CCCO1)c1cccc(Br)c1 (stereo not drawn)	inconclusive: -0.1%

Structure (SMILES)	inhibition
COC(=O)CC1COc2ccccc2N1C(=O)c1ccc(OC)cc1 (stereo not drawn)	inconclusive: 1.3%
O=[N+]([O-])c1cc(-c2cnc3ccccc3n2)ccc1Oc1ccc(F)cc1	inconclusive: 2.7%
CC1CC=C(c2ccccc2)C(=S)N1 (stereo not drawn)	inconclusive: 7.8%
CN1CCC(O)(c2ccc(Cl)cc2)C(C(=O)c2ccc(Cl)cc2)C1 (stereo not drawn)	inactive: 0%
CC(C)(C)c1ccc(C(=O)CCCSC2=C(C#N)C(c3ccco3)C3=C(CCCC3=O)N2)cc1 (stereo not drawn)	inconclusive: -2%
CCCN(C(=O)CSc1nnc(-c2ccc3c(c2)OCO3)o1)C1CCS(=O)(=O)C1 (stereo not drawn)	inactive: -0.9%
Cc1cc(C)cc(NC(=O)CSc2nnc(-c3ccccc3C)o2)c1	inconclusive: 1.7%
Cc1ccc(S(=O)(=O)N2CCC(C(=O)OC3CCOC3=O)CC2)cc1C (stereo not drawn)	inconclusive: 4.5%
COc1cc(CNC(=O)c2cc(C(=O)NCc3cc(OC)cc(OC)c3)n(C)n2)cc(OC)c1	inconclusive: 14%
O=S(=O)(Nc1cc(Cl)ccn1)c1ccc(Cl)cc1	inactive: -4.1%
CCOc1cc(OCC)c(C(C)=O)cc1OCC	inactive: -0.8%
Nc1nonc1-c1noc(CCCOc2ccc(Cl)cc2Cl)n1	inconclusive: -1.1%
O=C(CSc1nccc(=O)[nH]1)c1c[nH]c2ccccc12	inactive: -0.9%
Cc1ccc(-n2nc(C)c3c(C)c(CCC(=O)NC(C)c4ccccc4)c(C)nc32)cc1 (stereo not drawn)	inactive: 0.5%
COc1ccccc1N(C)S(=O)(=O)c1ccc(C(=O)Nc2nnc(C)s2)cc1	inconclusive: 0.1%
CCOc1ccc(NC(=O)c2cc([N+](=O)[O-])ccc2N2CCOCC2)cc1	inconclusive: 59.1%
COC(=O)CSc1nc2nc(-c3cccs3)cc(C(F)(F)F)c2c(=O)[nH]1	inactive: -3.2%
C=CCc1cc(C=O)cc(OC)c1OCc1c(Cl)cccc1Cl	inconclusive: -2.7%
CCc1ccccc1N1C(=O)c2cccc3c(N4CCOCC4)c([N+](=O)[O-])cc(c23)C1=O	inactive: -5.3%
CCC(Sc1nc(C)cc(=O)[nH]1)C(=O)Nc1nc2c(s1)CCCC2 (stereo not drawn)	inconclusive: -1%
Cc1ccc(NC(=O)C2(C)CCN2C(=O)CC(c2ccccc2)c2ccccc2)cc1 (stereo not drawn)	inactive: -0.1%
